HELM strings list residues between dots; [ac] is acetyl, [am] amide, other brackets name non-standard units.
Assay: peptide synthesis
Details: conjugation step

PEPTIDE1{[DOX14OGlt].G.P.L.G.L.A.G.D.D.Y.C.D.G.F.Y.A.C.Y.M.D.V.[am]}$PEPTIDE1,PEPTIDE1,12:R3-18:R3$$$V2.0
conjugation yield: 43.5%
purity (crude or final not stated) (HPLC (XBridge Prep OBD C18, water with 0.1% FA / ACN gradient)): 95.1%

Reference: article PMC6058718 (Drug Delivery, 2018)
